Laboratory results reported in patent US20240123015A1, “COMPOSITION FOR STRENGTHENING, DEVELOPING, DIFFERENTIATING, OR REGENERATING MUSCLE, OR PREVENTING, AMELIORATING, OR TREATING MUSCLE LOSS OR MUSCLE FATIGUE COMPRISING SCHIZONEPETA TENUIFOLIA EXTRACT AS EFFECTIVE COMPONENT” (KOREA INSTITUTE OF ORIENTAL MEDICINE, priority 2021, published 2024).
Entries after “also recorded” stand apart in the source; their conditions may differ. At least one structure is not confirmed: it was looked up by name or label, or the drawing left a doubt.

System: BALB/c mice
Test: Rotarod test in dexamethasone-induced animal model of fatigue
Assay type: in vivo, mouse
Details: dexamethasone 25 mg/kg; compared to normal group
Description: A 6-week-old male BALB/c mice was purchased from Orient Bio Inc. (Seongnam, South Korea) and used them for the test. The test animals were acclimated for one week in a breeding environment with a temperature of 25±2° C., humidity of 50±5%, and a 12-hour light-dark cycle, while being provided with ad libitum access to a standard diet (AIN-76A diet) and water. After the acclimation period, the animals were used for the test. The animal test of the present invention was carried out after obtaining an approval of Korea Institute of Oriental Medicine Institutional Animal Care and Use Committee.
The acclimated mice were randomly assigned to different groups: the normal group (Normal), the group administered with dexamethasone group (25 mg/kg), the group administered with Schizonepeta tenuifolia extract (HG, 200 mg/kg), and the positive control group administered with oxymetholone (50 mg/kg). Each group consisted of 6 mice. […]
Mouse was orally administered for 2 weeks with each test material, and then placed on the rod of a Rotarod apparatus and rotated at a speed of 20 rpm. The time until the mouse fell off the rod was then measured. […] The mean value of the three measurements for each animal was taken as the test result value, and the mean and standard deviation were calculated for each group of the six animals.

Question: With C[C@@H]1C[C@H]2[C@@H]3CCC4=CC(=O)C=C[C@]4(C)[C@@]3(F)[C@@H](O)C[C@]2(C)[C@@]1(O)C(=O)CO [dexamethasone] as the compound, how does the “hanging time on the Rotarod” value read?
Answer: The value was “statistically significant decrease in hanging time; also recorded: significantly decreased hanging time on the Rotarod”.
